Measurements from the supplement of paper PMC12595434, “Development of retinoid nuclear receptor pathway antagonists through targeting aldehyde dehydrogenase 1A3” (iScience, 2025).
This is one part of the list. The data scatter; read single values as rough.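 Tm was set to 64 °C where no melting was found, and many curves are irregular.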

Amino acid sequences for entries named in this document (tags omitted). A change or cut given only in a name is not applied to a line headed by its entry.
UniProt Q86WA6: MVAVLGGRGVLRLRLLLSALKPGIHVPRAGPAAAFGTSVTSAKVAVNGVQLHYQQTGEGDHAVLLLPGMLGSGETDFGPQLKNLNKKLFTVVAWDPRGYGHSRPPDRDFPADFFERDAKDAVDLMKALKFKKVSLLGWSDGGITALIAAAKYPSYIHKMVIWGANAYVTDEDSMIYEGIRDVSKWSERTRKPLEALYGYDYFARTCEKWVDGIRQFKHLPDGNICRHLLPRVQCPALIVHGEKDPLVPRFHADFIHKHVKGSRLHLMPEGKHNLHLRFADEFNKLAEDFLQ
UniProt Q8N7R7: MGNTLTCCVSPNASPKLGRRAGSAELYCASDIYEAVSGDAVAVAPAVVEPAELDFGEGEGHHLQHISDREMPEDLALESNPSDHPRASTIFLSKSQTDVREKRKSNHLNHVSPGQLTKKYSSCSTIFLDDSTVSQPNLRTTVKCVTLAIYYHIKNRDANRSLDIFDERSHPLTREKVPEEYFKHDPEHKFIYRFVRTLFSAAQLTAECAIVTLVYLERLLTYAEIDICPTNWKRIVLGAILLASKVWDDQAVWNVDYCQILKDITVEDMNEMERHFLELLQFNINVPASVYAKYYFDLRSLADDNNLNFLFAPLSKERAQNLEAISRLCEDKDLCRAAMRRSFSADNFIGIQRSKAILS
UniProt Q86YH6: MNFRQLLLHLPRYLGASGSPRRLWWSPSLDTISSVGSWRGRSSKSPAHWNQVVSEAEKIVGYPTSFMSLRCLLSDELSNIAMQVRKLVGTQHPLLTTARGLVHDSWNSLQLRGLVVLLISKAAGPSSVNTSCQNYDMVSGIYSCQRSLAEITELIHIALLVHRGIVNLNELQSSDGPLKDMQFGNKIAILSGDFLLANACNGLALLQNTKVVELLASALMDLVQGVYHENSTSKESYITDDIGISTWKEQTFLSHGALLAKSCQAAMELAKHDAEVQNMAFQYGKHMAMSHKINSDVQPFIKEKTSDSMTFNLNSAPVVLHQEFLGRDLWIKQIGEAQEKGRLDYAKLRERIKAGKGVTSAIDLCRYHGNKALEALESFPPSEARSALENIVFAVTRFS
UniProt Q8IWQ3: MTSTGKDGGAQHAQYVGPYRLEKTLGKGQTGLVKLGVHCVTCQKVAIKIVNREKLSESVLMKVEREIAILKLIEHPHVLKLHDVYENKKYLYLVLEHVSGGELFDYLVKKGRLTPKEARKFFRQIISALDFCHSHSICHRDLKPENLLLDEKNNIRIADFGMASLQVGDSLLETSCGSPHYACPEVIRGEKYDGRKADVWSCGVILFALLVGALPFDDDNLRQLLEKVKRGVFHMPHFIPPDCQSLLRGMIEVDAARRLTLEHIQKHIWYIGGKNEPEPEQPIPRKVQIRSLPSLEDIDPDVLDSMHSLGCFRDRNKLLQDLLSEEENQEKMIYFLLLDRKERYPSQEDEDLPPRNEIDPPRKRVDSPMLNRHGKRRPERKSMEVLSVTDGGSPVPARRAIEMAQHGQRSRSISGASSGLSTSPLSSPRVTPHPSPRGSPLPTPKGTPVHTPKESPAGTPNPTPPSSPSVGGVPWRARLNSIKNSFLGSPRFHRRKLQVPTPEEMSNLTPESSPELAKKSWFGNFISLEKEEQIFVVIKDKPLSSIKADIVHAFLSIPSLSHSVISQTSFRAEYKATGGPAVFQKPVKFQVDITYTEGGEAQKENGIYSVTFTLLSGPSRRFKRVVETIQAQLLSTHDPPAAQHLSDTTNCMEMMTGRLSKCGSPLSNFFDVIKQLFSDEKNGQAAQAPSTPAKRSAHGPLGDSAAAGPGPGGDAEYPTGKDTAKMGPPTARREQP
UniProt Q8N108: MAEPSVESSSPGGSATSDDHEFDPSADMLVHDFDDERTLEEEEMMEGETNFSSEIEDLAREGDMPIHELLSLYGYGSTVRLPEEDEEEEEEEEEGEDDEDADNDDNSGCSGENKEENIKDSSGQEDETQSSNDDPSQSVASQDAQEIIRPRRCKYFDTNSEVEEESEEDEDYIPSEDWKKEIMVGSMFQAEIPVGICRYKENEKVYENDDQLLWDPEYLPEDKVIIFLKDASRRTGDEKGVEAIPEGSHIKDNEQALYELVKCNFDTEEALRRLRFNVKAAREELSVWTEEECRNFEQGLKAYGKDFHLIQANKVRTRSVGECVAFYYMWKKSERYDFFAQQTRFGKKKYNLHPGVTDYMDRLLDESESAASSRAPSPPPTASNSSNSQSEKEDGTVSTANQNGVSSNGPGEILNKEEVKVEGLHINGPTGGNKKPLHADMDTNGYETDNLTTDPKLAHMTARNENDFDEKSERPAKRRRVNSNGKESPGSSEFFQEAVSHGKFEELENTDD
UniProt Q8N4S0: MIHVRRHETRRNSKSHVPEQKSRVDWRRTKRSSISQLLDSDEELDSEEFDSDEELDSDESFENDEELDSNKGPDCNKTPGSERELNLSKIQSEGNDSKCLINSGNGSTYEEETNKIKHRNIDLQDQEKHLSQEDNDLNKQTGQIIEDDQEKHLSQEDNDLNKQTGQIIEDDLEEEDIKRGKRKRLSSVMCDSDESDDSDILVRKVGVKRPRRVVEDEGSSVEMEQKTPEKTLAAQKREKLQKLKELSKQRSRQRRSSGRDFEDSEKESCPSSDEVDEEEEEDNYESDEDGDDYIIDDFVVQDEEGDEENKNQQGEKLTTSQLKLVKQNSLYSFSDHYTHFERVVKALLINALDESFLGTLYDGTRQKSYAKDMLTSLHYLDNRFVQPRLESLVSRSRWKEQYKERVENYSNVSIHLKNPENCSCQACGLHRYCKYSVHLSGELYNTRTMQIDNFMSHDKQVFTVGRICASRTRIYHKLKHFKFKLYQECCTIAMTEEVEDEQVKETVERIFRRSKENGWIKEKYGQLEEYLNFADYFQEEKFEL
UniProt Q8N371: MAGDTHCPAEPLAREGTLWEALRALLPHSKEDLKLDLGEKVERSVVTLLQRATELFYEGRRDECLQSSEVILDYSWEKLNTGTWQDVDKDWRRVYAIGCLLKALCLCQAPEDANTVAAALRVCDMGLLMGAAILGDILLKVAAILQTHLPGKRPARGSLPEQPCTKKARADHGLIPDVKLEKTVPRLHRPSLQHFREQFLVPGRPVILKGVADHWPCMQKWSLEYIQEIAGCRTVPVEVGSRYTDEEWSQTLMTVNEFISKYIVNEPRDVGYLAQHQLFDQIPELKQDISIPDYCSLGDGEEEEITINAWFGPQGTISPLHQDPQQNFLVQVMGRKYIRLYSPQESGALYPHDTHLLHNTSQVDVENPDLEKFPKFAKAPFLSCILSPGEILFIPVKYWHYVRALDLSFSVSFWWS
UniProt Q8N2Z9: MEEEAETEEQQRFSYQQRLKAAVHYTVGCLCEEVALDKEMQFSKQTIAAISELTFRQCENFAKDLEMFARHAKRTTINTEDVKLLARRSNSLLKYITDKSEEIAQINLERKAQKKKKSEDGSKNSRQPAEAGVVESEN
UniProt Q8IZ21: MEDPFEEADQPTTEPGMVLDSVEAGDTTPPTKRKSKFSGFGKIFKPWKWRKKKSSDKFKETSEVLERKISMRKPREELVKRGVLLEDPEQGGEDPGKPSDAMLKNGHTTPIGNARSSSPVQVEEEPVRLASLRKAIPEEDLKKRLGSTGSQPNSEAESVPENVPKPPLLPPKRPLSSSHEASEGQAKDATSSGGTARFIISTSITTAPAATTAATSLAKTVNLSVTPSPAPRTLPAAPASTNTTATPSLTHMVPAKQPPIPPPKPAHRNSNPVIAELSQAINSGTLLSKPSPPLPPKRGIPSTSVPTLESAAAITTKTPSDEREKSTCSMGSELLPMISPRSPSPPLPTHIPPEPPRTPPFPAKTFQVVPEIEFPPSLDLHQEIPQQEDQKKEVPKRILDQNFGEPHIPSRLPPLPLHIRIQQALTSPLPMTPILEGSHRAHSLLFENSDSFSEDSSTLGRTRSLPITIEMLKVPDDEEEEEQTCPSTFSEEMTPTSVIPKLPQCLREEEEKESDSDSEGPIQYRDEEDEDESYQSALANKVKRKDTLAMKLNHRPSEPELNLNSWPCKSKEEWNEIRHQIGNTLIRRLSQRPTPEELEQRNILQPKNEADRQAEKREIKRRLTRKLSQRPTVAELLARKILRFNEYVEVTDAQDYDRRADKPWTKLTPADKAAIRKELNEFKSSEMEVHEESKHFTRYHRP
UniProt Q8IX03, whole entry: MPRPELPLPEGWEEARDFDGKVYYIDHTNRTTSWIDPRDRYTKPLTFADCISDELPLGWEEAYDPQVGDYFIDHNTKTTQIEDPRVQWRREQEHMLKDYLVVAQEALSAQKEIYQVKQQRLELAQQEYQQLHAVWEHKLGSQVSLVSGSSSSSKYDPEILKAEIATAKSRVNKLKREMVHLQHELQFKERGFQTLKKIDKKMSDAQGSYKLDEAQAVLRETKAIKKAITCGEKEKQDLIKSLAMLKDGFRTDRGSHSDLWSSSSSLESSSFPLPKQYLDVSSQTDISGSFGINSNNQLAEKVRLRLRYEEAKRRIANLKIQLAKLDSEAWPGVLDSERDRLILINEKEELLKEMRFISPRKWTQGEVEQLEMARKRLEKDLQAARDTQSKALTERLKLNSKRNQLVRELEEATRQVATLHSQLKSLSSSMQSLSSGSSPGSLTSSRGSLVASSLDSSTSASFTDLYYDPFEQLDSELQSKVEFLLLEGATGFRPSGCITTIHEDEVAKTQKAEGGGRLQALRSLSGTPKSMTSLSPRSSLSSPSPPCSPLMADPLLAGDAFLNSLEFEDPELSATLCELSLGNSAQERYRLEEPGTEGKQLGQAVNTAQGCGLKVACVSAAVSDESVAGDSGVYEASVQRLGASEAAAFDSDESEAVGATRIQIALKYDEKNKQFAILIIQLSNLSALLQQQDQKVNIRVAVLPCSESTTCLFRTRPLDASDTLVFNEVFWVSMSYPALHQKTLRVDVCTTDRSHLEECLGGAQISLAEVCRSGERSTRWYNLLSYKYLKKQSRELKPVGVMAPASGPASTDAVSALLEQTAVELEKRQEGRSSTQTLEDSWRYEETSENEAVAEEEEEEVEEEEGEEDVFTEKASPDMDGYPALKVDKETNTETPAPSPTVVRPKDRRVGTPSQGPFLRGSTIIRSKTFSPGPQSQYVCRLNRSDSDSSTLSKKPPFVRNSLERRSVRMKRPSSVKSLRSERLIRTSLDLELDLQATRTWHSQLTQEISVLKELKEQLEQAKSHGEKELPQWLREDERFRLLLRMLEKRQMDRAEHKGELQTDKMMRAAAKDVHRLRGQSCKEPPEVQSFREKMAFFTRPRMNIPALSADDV
UniProt Q86Y39, whole entry: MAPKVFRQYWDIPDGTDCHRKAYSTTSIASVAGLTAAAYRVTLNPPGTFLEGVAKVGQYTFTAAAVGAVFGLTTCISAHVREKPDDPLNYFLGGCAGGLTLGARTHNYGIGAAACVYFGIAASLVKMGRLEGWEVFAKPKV
UniProt Q8IYU2: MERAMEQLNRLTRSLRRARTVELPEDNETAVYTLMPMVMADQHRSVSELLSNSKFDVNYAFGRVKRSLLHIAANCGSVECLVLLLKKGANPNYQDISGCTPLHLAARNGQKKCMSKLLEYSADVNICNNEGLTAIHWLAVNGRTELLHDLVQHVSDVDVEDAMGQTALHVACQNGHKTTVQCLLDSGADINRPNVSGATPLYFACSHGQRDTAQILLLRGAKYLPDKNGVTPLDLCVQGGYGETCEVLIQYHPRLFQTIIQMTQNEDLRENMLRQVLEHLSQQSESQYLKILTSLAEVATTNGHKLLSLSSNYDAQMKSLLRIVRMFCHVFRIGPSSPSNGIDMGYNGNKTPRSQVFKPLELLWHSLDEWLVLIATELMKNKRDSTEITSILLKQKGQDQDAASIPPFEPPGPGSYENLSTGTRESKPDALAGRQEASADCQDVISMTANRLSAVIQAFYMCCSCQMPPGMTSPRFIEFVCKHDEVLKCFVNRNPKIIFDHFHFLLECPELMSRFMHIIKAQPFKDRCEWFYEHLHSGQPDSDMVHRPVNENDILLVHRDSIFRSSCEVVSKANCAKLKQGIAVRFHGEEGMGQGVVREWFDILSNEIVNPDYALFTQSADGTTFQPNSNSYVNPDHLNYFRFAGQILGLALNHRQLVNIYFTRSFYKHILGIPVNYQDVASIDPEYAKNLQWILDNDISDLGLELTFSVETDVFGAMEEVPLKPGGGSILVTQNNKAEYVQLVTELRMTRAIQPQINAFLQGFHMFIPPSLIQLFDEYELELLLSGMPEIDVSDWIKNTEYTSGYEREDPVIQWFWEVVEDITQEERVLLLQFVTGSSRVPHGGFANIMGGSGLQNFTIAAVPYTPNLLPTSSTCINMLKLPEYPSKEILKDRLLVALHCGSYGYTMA
UniProt Q8IXQ4: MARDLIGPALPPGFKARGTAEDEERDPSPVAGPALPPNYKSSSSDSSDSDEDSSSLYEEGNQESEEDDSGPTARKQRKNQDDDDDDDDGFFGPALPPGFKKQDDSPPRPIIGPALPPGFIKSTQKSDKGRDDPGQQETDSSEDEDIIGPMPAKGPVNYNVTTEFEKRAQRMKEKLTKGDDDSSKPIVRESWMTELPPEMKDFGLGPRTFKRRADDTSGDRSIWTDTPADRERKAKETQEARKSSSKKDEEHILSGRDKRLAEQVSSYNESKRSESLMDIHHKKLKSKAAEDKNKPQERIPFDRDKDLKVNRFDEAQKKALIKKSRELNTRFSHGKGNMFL

compound: CCc1cnccc1C(=O)Nc1cc2c(cc1F)NC(=O)CC2; test: melting temperature shift (DMSO Tm minus MBE1-treated Tm) in cellular thermal proteome profiling; higher = less thermal stabilization by MBE1 (negative = stabilized by MBE1); details: A375; MBE1 concentration: 100 nM

Row | Target | melting temperature shift [°C]
1 | UniProt Q86YW9 | 1.59
2 | MINA (UniProt Q8IUF8) | 0.965
3 | BPHL (UniProt Q86WA6) | -0.641
4 | UniProt Q8N7R7 | 1.91
5 | UniProt Q8N0Z8 | -1.9
6 | ANKMY2 (UniProt Q8IV38) | 0.403
7 | UniProt Q86YA3 | -0.75
8 | UniProt Q86VX9 | 1.87
9 | UniProt Q8IZU2 | 0.0335
10 | LYSMD2 (UniProt Q8IV50) | -1.13
11 | PDSS2 (UniProt Q86YH6) | -2.2
12 | UniProt Q8N4B1 | -0.0604
13 | P3H2 (UniProt Q8IVL5) | -1
14 | BRSK2 (UniProt Q8IWQ3) | 1.19
15 | C2CD5 (UniProt Q86YS7) | -0.147
16 | SESTD1 (UniProt Q86VW0) | -1.63
17 | RAB43 (UniProt Q86YS6) | -2.82
18 | UniProt Q8N2Q7 | 2.25
19 | MIER1 (UniProt Q8N108) | -0.624
20 | UniProt Q8N4S0 | 0.311
21 | NUP93 (UniProt Q8N1F7) | 1.03
22 | UniProt Q86X53 | -1.35
23 | UBR1 (UniProt Q8IWV7) | -0.892
24 | UniProt Q8N371 | -1.01

same assay, conditions: A375; MBE1 concentration: 1 uM

Row | Target | melting temperature shift [°C]
25 | MINA (UniProt Q8IUF8) | 1.26
26 | BPHL (UniProt Q86WA6) | -0.397
27 | UniProt Q8N7R7 | 1.25
28 | RHPN2 (UniProt Q8IUC4) | -1.95
29 | UniProt Q8N2Z9 | 0.275
30 | UniProt Q8IXJ9 | 2.23
31 | UniProt Q8IZD4 | 2.21
32 | PHACTR4 (UniProt Q8IZ21) | -2.04
33 | RTTN (UniProt Q86VV8) | 3.03
34 | ANKMY2 (UniProt Q8IV38) | 0.464
35 | UniProt Q86VX9 | 0.446
36 | LYSMD2 (UniProt Q8IV50) | -1.1
37 | WWC1 (UniProt Q8IX03) | -1.53
38 | PDSS2 (UniProt Q86YH6) | 0.469
39 | UniProt Q8IUW5 | 1.77
40 | P3H2 (UniProt Q8IVL5) | -0.652
41 | UniProt Q8N8E3 | -2.66
42 | BRSK2 (UniProt Q8IWQ3) | 1.49
43 | C2CD5 (UniProt Q86YS7) | 0.287
44 | UniProt Q86Y46 | -1.85
45 | RAB43 (UniProt Q86YS6) | -0.751
46 | NDUFA11 (UniProt Q86Y39) | 0.862
47 | MIER1 (UniProt Q8N108) | -0.0183
48 | UniProt Q8N4S0 | -0.58
49 | NUP93 (UniProt Q8N1F7) | 0.69
50 | UniProt Q8IYU2 | -1.58
51 | UBR1 (UniProt Q8IWV7) | -0.591
52 | GPALPP1 (UniProt Q8IXQ4) | -2.82
